Data as given in PubChem BioAssay AID652243 (Drosophila RNAi Screening Center, 2013)

Assay: 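Fly genes required for human androgen receptor driven transcription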 (primary screen)
Cell system: Drosophila S2R+ cells
Knock-down reagent: long dsRNA against Drosophila genes
Duration: 72 h (48 h, then 24 h hormone)
Conditions: synthetic androgen R1881 at 10 nM for 24 h
Detection: 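Firefly light from an androgen-responsive reporter and Renilla control light per well, raw and unnormalised, for each of two replicates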
Scale: firefly reporter light: higher = more light from androgen-responsive reporter; Renilla control light: higher = more constitutive control signal (cell number, transfection)
Call rule: 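Across duplicate plates, a knock-down whose log firefly/Renilla ratio shifted a set fold down or up from the GFP/LacZ control mean was a hit; the downward cut appears as both 1.5 and 3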
Calls: active = hit: reporter lowered or raised; inactive = no hit
The screen tested about 24,000 reagents; shown is an unselected part of those with a known target gene and a result. Over the whole deposit, 246 (1%) are marked active. 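Plates not normalised; calls are printed but the firefly/Renilla ratio behind them is not deposited; fold cut for lowering reported inconsistently.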 Raw values are not corrected between plates. Reagents against one gene are numbered here. Names joined by + are all predicted targets of the reagent. Not stated in the record: the amount of reagent.

Target gene	reagent	firefly reporter light, replicate 1	firefly reporter light, replicate 2	Renilla control light, replicate 1	Renilla control light, replicate 2	Call
CanA1 (Calcineurin A1)	1	2.25e5	1.95e5	1.79e6	2.95e6	inactive
CanA1 (Calcineurin A1)	2	4.27e5	4.55e5	9.37e5	9.75e5	inactive
CanA1 (Calcineurin A1)	3					inactive
CG14695	1	1.38e5	1.90e5	1.54e6	2.20e6	inactive
pim (pimples)	1	7.41e5	8.46e5	1.24e6	1.46e6	inactive
RpL13A (Ribosomal protein L13A)	1	38070	45129	4.64e5	4.10e5	inactive
RpL13A (Ribosomal protein L13A)	2	3.05e5	2.43e5	3.84e5	3.99e5	inactive
CG4982	1	4.11e5	4.83e5	2.02e6	3.17e6	inactive
CG33506	1	6.05e5	8.58e5	1.83e6	2.15e6	inactive
Slimp (Seryl-tRNA synthetase-like insect mitochondrial protein)	1	39477	59113	71167	93818	inactive
Cyp4e2 (Cytochrome P450 4e2)	1	1.30e6	5.88e5	1.77e6	7.40e5	inactive
CG7341	1	57594	61985	5.25e5	3.59e5	inactive
CheA87a (Chemosensory protein A 87a)	1	2.54e5	1.77e5	1.59e6	2.22e6	inactive
SoYb	1	1.75e5	2.10e5	8.91e5	1.15e6	inactive

Reformatted: results already given
{"Target gene": "CG14695", "reagent": 1, "firefly reporter light, replicate 1": 1.38e5, "firefly reporter light, replicate 2": 1.90e5, "Renilla control light, replicate 1": 1.54e6, "Renilla control light, replicate 2": 2.20e6, "Call": "inactive"}
{"Target gene": "pim (pimples)", "reagent": 1, "firefly reporter light, replicate 1": 7.41e5, "firefly reporter light, replicate 2": 8.46e5, "Renilla control light, replicate 1": 1.24e6, "Renilla control light, replicate 2": 1.46e6, "Call": "inactive"}
{"Target gene": "RpL13A (Ribosomal protein L13A)", "reagent": 1, "firefly reporter light, replicate 1": 38070, "firefly reporter light, replicate 2": 45129, "Renilla control light, replicate 1": 4.64e5, "Renilla control light, replicate 2": 4.10e5, "Call": "inactive"}

The results go on.
Target gene	reagent	firefly reporter light, replicate 1	firefly reporter light, replicate 2	Renilla control light, replicate 1	Renilla control light, replicate 2	Call
Dph5 (Diphthamide methyltransferase)	1	33783	55408	5.78e5	6.56e5	inactive
Dph5 (Diphthamide methyltransferase)	2	1.80e5	1.84e5	5.97e5	6.43e5	inactive
I-2 (Inhibitor-2)	1	2.09e5	1.75e5	1.61e6	1.51e6	inactive
I-2 (Inhibitor-2)	2	7.84e5	7.63e5	2.31e6	1.76e6	inactive
CycH (Cyclin H)	1	3.07e5	2.90e5	2.01e6	1.88e6	inactive
CycH (Cyclin H)	2	3.89e5	7.82e5	8.17e5	1.23e6	inactive
CycH (Cyclin H)	3					inactive
CG14455	1	1.61e5	1.56e5	1.43e6	1.90e6	inactive
CG14455	2	3.10e5	2.38e5	1.21e6	1.29e6	inactive
CG17917	1	80820	84923	1.70e6	1.56e6	inactive
Usp15-31 (Ubiquitin specific protease 15/31)	1	6.56e5	9.15e5	1.59e6	1.50e6	inactive
Usp15-31 (Ubiquitin specific protease 15/31)	2	8.26e5	8.20e5	8.49e5	9.72e5	inactive
Kal1 (Kallmann syndrome 1)	1	43184	1.11e5	5.07e5	6.13e5	inactive
Nubp1 (NUBP iron-sulfur cluster assembly factor 1)	1	1.05e6	1.02e6	1.73e6	1.60e6	inactive
Hs2st (Heparan sulfate 2-O-sulfotransferase)	1	1.17e6	1.09e6	1.71e6	1.52e6	inactive
sphe (spheroide)	1	1.17e5	1.52e5	7.92e5	8.86e5	inactive
kin17	1	1.27e5	1.39e5	1.80e6	1.14e6	inactive
kin17	2	3.92e5	3.31e5	5.90e5	5.20e5	inactive
Flo2 (Flotillin 2)	1	4.84e5	3.96e5	2.68e5	1.62e5	inactive
Flo2 (Flotillin 2)	2	5.87e5	3.68e5	4.33e6	3.97e6	inactive
mmy (mummy)	1	2.58e5	3.79e5	8.61e5	7.66e5	inactive
CG14568	1	2.52e5	2.65e5	2.48e6	3.10e6	inactive
CG15333	1	4.09e5	3.34e5	3.45e6	2.58e6	inactive
CG15333	2	2.26e5	3.01e5	1.74e6	1.40e6	inactive
asRNA:CR43299 + CG8119	1	2.26e5	2.37e5	1.97e6	2.12e6	inactive
Rrp40 (Ribosomal RNA processing 40)	1	2.05e5	2.28e5	4.29e5	3.79e5	inactive
